This is one part of the list.
Legend:
Test in all cases: log2 fold change, soluble protein after heating vs DMSO (PISA); higher = thermal stabilisation; K562 lysate, 10 uM; active = over 0.2 and 3.5 SD of the protein, either way, in both replicates (recomputed)
[1] = compound: C1=CC=C(C=C1)[C@H](COC2=CC3=C(C=C2)NC(=O)N3)NC(=O)C4=CC=CN(C4=O)CC5=CC(=C(C=C5)F)F
How it was run: (§1)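 A 30 min treatment with 10 μM compound was applied to crude K562 extract at 1 mg/mL protein in PBS pH 7.4 with 1 mM MgCl2. Heating for 3 min spanned 48°C-58°C, after which aliquots were pooled, adjusted to 0.5% NP-40 at 4°C and spun at 21,000xg for 90 min. TMTpro 16plex LC-MS/MS of the supernatant, with channel sums equalised, gave values recorded as log-two fold change in thermal stability against solvent controls, from duplicates.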

The chains behind the UniProt entries cited, without tags or fusion partners. Where a name states a change or a piece, a line headed by the entry shows the natural chain unless it says otherwise.
UniProt Q8NE01: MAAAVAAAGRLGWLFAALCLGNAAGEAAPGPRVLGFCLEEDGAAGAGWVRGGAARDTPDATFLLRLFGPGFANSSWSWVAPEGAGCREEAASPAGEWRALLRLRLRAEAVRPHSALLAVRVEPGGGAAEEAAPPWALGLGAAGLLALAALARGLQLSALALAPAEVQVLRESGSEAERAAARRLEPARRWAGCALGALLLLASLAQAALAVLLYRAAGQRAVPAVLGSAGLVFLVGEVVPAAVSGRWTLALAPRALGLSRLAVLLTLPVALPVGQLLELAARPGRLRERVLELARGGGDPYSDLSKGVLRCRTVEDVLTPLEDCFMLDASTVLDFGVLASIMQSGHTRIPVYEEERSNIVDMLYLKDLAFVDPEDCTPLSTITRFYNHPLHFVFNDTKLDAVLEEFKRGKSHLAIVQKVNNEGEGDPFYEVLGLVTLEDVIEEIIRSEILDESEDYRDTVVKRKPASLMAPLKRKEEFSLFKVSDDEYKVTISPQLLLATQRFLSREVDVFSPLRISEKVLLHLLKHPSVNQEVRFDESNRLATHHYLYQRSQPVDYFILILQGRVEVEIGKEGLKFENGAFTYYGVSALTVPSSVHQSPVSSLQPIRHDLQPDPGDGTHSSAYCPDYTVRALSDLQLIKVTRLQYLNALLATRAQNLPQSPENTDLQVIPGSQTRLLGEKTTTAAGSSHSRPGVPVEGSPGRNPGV
UniProt Q86YQ8: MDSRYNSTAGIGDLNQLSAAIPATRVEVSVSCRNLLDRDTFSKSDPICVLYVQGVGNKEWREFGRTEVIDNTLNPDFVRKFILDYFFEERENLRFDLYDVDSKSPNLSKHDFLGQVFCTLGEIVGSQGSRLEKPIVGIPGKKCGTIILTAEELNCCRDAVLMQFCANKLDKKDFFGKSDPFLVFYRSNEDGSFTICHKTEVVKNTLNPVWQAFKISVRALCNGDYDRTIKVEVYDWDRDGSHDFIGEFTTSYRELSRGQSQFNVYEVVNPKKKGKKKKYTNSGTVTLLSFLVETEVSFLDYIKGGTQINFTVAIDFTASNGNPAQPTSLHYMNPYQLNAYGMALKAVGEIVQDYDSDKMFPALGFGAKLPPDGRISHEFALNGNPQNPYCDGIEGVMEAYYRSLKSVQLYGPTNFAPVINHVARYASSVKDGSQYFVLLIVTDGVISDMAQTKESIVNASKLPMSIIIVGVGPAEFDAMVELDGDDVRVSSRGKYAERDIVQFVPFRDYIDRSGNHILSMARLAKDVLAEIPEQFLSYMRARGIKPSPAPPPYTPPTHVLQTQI
UniProt Q96KP4: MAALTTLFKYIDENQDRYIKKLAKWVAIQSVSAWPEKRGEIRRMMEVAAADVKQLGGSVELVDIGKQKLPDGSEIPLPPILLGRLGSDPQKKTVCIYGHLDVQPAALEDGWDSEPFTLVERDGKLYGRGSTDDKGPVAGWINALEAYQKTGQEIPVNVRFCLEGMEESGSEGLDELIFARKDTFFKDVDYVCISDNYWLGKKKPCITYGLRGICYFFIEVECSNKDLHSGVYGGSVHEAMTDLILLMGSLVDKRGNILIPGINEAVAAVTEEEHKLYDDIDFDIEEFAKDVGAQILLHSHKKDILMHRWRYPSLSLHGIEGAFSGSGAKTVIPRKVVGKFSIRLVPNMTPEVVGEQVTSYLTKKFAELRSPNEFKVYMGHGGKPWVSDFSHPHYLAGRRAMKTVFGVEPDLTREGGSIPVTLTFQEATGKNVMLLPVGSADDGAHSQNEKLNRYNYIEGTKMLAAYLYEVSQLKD
UniProt Q14746: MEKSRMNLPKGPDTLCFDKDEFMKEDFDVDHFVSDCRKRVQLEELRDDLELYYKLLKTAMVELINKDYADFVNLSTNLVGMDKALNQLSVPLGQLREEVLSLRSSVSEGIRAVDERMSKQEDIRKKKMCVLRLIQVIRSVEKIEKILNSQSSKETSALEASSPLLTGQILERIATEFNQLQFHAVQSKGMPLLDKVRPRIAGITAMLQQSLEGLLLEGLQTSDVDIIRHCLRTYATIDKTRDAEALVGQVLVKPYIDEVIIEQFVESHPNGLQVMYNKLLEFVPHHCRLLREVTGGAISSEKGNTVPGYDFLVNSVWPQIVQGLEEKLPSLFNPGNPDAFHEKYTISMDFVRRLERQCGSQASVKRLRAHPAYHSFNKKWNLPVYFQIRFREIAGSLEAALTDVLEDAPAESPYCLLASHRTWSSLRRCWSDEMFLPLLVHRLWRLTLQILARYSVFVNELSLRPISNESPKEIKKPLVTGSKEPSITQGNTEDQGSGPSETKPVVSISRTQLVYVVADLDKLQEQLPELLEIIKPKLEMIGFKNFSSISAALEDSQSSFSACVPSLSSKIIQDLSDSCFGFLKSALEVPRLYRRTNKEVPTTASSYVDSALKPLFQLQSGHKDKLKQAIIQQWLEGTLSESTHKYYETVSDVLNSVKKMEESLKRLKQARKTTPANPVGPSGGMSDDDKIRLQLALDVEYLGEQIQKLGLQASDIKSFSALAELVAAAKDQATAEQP
UniProt Q5JTJ3: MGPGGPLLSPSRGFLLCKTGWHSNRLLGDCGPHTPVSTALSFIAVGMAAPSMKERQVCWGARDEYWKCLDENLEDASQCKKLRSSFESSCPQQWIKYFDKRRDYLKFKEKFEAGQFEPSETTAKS
UniProt Q8N668, whole entry, looked up: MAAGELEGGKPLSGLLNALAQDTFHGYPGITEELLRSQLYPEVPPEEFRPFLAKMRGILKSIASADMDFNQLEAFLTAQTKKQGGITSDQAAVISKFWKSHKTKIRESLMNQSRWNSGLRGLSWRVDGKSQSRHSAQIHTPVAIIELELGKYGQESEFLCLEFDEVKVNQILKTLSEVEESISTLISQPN
UniProt Q9UIV1, whole entry, looked up: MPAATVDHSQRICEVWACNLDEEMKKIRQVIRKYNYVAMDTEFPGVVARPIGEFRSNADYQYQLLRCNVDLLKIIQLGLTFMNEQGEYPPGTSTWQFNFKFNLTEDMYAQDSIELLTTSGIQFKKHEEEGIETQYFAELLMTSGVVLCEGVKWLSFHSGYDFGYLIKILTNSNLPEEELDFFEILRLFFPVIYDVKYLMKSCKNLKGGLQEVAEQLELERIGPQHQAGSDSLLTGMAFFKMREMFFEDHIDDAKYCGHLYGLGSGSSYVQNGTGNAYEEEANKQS
UniProt Q96BR5: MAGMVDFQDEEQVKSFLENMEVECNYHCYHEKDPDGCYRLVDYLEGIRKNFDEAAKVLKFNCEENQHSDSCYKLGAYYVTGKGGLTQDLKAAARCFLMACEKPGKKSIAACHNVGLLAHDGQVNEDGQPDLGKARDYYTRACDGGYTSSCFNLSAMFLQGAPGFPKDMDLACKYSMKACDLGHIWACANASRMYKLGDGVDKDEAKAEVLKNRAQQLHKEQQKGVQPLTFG
UniProt O95628: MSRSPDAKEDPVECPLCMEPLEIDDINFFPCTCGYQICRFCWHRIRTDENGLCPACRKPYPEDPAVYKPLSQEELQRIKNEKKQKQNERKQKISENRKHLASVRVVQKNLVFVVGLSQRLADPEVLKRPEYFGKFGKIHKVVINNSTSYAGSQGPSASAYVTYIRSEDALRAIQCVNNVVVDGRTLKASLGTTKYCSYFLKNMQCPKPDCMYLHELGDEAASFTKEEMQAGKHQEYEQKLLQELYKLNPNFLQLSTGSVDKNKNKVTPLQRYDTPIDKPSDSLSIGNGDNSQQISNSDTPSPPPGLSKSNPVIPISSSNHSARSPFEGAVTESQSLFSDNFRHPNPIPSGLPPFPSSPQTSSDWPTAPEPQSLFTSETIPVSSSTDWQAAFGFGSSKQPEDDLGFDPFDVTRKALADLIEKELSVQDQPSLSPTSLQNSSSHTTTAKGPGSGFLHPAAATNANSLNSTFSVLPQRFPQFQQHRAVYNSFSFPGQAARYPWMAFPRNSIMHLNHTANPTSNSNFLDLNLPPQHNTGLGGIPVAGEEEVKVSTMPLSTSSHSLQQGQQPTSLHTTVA
UniProt Q9ULV4, whole entry, looked up: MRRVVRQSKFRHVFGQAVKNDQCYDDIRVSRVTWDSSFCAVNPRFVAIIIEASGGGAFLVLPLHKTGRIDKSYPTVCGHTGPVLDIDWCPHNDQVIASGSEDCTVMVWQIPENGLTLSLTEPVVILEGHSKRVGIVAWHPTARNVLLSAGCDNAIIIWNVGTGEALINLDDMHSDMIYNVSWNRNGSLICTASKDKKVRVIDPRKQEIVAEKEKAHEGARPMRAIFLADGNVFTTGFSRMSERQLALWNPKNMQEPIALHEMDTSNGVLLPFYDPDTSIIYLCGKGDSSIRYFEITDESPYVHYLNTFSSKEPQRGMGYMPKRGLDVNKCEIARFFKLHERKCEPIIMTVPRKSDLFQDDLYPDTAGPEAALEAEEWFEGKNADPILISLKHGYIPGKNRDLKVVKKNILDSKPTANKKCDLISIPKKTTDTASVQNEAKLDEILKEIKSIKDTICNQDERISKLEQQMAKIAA
UniProt Q9NX08, whole entry, looked up: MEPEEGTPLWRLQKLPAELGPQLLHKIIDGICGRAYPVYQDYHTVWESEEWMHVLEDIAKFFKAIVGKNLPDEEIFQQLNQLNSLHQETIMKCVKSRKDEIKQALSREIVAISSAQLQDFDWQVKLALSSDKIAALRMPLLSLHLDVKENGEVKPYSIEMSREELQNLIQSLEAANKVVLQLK
UniProt Q8IWV2: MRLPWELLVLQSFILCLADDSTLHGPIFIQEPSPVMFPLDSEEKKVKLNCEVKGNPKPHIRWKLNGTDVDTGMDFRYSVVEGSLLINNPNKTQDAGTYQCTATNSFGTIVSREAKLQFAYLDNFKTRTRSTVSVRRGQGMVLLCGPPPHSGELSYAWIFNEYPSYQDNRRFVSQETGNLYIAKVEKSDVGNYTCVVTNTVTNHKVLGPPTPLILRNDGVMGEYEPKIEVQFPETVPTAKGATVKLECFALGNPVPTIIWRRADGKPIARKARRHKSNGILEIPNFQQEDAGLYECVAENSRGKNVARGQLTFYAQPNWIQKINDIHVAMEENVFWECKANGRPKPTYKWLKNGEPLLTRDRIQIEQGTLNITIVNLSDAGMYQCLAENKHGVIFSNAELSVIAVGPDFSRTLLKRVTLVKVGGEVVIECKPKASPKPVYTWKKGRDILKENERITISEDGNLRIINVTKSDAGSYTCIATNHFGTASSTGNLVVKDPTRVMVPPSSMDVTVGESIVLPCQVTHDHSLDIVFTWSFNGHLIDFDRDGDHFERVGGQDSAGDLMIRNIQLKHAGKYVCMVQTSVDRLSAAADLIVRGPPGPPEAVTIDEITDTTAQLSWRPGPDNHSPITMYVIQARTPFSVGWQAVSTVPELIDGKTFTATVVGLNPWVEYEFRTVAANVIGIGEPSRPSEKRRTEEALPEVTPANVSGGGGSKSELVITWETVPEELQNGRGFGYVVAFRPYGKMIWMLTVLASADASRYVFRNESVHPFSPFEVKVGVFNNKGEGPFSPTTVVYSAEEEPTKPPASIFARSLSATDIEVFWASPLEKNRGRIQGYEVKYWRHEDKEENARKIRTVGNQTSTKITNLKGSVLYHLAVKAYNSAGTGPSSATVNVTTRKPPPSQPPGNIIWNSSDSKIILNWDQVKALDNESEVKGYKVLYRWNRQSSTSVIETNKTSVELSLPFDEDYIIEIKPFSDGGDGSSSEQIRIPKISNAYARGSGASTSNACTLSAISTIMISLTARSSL
UniProt G9CGD6: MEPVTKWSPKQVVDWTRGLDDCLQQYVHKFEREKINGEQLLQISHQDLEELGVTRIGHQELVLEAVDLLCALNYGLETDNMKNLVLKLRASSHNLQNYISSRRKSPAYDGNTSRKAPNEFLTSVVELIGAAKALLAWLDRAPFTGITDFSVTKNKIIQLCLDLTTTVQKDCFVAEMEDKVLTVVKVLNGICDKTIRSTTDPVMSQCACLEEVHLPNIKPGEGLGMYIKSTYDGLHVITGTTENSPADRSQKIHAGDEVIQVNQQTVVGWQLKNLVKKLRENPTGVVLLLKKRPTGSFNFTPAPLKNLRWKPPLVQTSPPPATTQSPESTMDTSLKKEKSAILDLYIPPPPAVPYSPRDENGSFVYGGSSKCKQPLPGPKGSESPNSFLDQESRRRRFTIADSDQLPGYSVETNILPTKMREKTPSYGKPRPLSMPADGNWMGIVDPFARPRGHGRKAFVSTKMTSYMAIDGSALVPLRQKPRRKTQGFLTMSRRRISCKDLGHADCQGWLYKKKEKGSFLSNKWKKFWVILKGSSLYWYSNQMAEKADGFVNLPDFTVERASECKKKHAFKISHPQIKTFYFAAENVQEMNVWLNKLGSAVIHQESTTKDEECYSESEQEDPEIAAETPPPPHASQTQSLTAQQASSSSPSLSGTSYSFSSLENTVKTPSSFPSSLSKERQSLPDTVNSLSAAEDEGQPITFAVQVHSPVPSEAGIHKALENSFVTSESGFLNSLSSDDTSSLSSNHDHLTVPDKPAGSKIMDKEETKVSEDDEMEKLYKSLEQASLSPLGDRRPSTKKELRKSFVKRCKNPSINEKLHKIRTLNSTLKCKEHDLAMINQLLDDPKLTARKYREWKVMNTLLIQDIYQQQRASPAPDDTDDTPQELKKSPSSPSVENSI
UniProt Q86WW8: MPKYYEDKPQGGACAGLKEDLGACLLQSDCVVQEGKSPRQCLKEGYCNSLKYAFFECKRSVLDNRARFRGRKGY

[2] = compound: CC1=C(SC2=C1C(=N[C@H](C3=NN=C(N32)C)CC(=O)N)C4=CC=C(C=C4)Cl)C
How it was run: as §1

[3] = compound: CC1=C2C(=CC=C1)N=C(N(C2=O)C3=CC=CC=C3C)CN4C=NC5=C(N=CN=C54)N
How it was run: as §1

[4] = compound: Cc1sc2c(c1C)C(c1ccc(Cl)cc1)=N[C@@H](CC(=O)OC(C)(C)C)c1nnc(C)n1-2
How it was run: as §1

[5] = compound: c1ccc([C@@H]2C[C@H]2NC2CCNCC2)cc1
How it was run: as §1

Measured: log2 fold change

CNNM3 (UniProt Q8NE01)
inactive: [1] 0 | [2] 0.067 | [3] 0.051 | [4] 0.02 | [5] 0.023

CPNE8 (UniProt Q86YQ8)
inactive: [1] -0.128 | [2] 0.007 | [3] 0.03 | [4] -0.149 | [5] 0.053

CNDP2 (UniProt Q96KP4)
inactive: [1] 0.017 | [2] 0.017 | [3] -0.022 | [4] -0.006 | [5] -0.145

COG2 (UniProt Q14746)
inactive: [1] -0.038 | [2] -0.034 | [3] 0.054 | [4] 0.001 | [5] 0.009

COA6 isoform 2 (UniProt Q5JTJ3)
inactive: [1] 0.076 | [2] -0.036 | [3] -0.081 | [4] -0.035 | [5] -0.023

COMMD1 (UniProt Q8N668)
inactive: [1] 0.046 | [2] -0.024 | [3] -0.048 | [4] 0.008 | [5] -0.082

CNOT7 (UniProt Q9UIV1)
inactive: [1] -0.044 | [2] 0.028 | [3] 0.01 | [4] 0.023 | [5] 0.028

COA7 (UniProt Q96BR5)
inactive: [1] 0.009 | [2] -0.042 | [3] -0.013 | [4] -0.001 | [5] -0.045

CNOT4 isoform 9 (UniProt O95628)
inactive: [1] -0.173 | [2] 0.081 | [3] -0.014 | [4] -0.066 | [5] -0.551

CNPY2 (UniProt Q9Y2B0)
inactive: [1] 0.003 | [2] -0.043 | [3] -0.041 | [4] -0.002 | [5] 0.014

COL15A1 (UniProt P39059)
inactive: [1] 0.029 | [2] 0.001 | [3] 0.118 | [4] 0.023 | [5] 0.004

CORO1C isoform 3 (UniProt Q9ULV4)
inactive: [1] 0.025 | [2] -0.016 | [3] 0.001 | [4] -0.011 | [5] -0.014

COMMD8 (UniProt Q9NX08)
inactive: [1] 0.054 | [2] -0.016 | [3] 0.112 | [4] -0.015 | [5] 0.097

COL14A1 (UniProt Q05707)
inactive: [1] -0.037 | [2] 0.298 | [3] -0.064 | [4] -0.049 | [5] -0.055

CNTN4 (UniProt Q8IWV2)
inactive: [1] 0.046 | [2] 0.073 | [3] 0.105 | [5] -0.319

CNK3/IPCEF1 isoform 2 (UniProt G9CGD6)
inactive: [3] -0.032 | [4] 0 | [5] -0.817

COG5 isoform 2 (UniProt Q9UP83)
inactive: [1] 0.034 | [2] 0.045 | [3] -0.042 | [4] -0.003 | [5] 0.033

COA5 (UniProt Q86WW8)
inactive: [1] 0.02 | [2] 0.035 | [3] 0.152 | [4] -0.012 | [5] 0.033

Two consecutive records out of the list so far, quoted:
CNTN4 (UniProt Q8IWV2)
inactive: [1] 0.046 | [2] 0.073 | [3] 0.105 | [5] -0.319

CNK3/IPCEF1 isoform 2 (UniProt G9CGD6)
inactive: [3] -0.032 | [4] 0 | [5] -0.817

Reference: the supplement of paper PMC10849652
